Laboratory results reported in patent US20100311820.
pIC50: −log10 of the molar value. Negatives hold for the conditions tested. Where a protein sequence is shown, tags need not be part of it. For part of these data: A weaker result is weaker than the reference pair of the same experiment. For at least one entry, the source does not settle the construct or the ends of the probe. For part of these data: Where cells or extracts were used, other partners may take part.

How the values were obtained:
[1] = target: T1, Glycoprotein VI on platelets (Homo sapiens) (UniProt Q9HCN6); assay: activity in cells; settings: protein on the cell surface; for functional effect of the aptamer: dose not given here
T1 sequence (limits assumed): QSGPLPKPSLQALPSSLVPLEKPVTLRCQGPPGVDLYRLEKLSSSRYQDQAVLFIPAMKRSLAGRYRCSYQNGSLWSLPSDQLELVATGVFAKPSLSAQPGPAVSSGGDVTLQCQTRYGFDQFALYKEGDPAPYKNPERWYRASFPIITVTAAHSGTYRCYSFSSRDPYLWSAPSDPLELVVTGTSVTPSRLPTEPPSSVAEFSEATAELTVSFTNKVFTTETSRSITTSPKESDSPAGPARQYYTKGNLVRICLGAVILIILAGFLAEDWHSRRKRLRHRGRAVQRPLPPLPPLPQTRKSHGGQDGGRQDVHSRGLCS

[2] = target: T2, Glycoprotein VI extracellular domain (Gln21-Lys267) (Homo sapiens) (UniProt Q9HCN6); assay: filter binding; settings: purified recombinant protein, protein details: C-terminal His6, R&D Systems 3627-GP, label: 5'-32P
T2 sequence: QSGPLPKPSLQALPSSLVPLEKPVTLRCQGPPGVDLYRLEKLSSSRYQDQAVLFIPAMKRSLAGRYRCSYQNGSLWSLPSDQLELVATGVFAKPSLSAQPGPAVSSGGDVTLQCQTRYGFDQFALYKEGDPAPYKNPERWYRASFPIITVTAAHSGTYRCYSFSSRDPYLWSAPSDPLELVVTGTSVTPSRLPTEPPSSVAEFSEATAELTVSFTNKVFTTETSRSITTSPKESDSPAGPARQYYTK

[3] = 2'-F C and U, 2'-OH A and G, hexaethylene glycol spacer in place of Loop 2, 3' idT, no binding, variant of RB466
[4] = 2'-F C and U, 2'-OH A and G, binding not detected, variant of EF-3 T2 (RB430)
[5] = 2'-F C and U, 2'-OH purines, no effect on collagen-induced aggregation, washed platelets, variant of EF-3 T2 (RB430)
[6] = 2'-F C and U, 2'-OH purines, blocked collagen-induced aggregation, washed platelets
[7] = 2'-F C and U, 2'-OH A and G, binding not detected, variant of EF-2 T2 (RB428)
[8] = 2'-F C and U, 2'-OH purines, no effect on collagen-induced aggregation, washed platelets, variant of EF-2 T2 (RB428)

## GGAGGACGGCGCGCCUGGCAUAAGCCUCC [RB540]
[1]; 2'-OH G1, 2'-deoxy A6,G8,G9, 2'-F C7,C14,C15,U16,C19,U21, all others 2'-OMe, hexaethylene glycol spacer between G11 and C12, 3' idT, collagen-induced washed platelet aggregation, variant of RB538
  pIC50: 7.36

## GGAGGACGGCGCGCCUGGCAUAAGCCUCC [RB549]
[1]; RB540 with PS G8-G9, collagen-induced washed platelet aggregation, CRP-XL IC50 98 nM, variant of RB540
  pIC50: 7.60
[1]; rGmGmAmGmGAfCG(s)GmCmG(6GLY)mCmGfCfCfUmGmGfCmAfUmAmAmGmCmCmUmCmCiT, CRP-XL-induced aggregation, washed platelets
  pIC50: 7.01

## GGAGGACGGCGCGCCUGGCAUAAGCCUCC [RB566]
[1]; RB540 with PS G8-G9 and G9-C10, collagen-induced washed platelet aggregation, CRP-XL IC50 38 nM, variant of RB540
  pIC50: 7.70
[1]; rGmGmAmGmGAfCG(s)G(s)mCmG(6GLY)mCmGfCfCfUmGmGfCmAfUmAmAmGmCmCmUmCmCiT, CRP-XL-induced aggregation, washed platelets
  pIC50: 7.42
[1]; rGmGmAmGmGAfCG(s)G(s)mCmG(6GLY)mCmGfCfCfUmGmGfCmAfUmAmAmGmCmCmUmCmCiT, greatly reduced platelet adhesion and aggregation on collagen under flow, whole blood
  functional effect of the aptamer: active

## GGAGGACGGCGCGCCUGGCAUAAGCCUCC [RB569]
[1]; (PEG40KGL2-NOF)(C6L)mGmGmAmGmGAfCG(s)GmCmG(6GLY)mCmGfCfCfUmGmGfCmAfUmAmAmGmCmCmUmCmCiT, dose-dependent inhibition of collagen- and CRP-induced aggregation, washed platelets
  functional effect of the aptamer: active

## GGAGGACGGCGCGCCUGGCAUAAGCCUCC [RB570]
[1]; (PEG40KGL2-NOF)(C6L)mGmGmAmGmGAfCGGmCmG(6GLY)mCmGfCfCfUmGmGfCmAfUmAmAmGmCmCmUmCmCiT, dose-dependent inhibition of collagen- and CRP-induced aggregation, washed platelets
  functional effect of the aptamer: active

## GGGAGCACGGCGCGCCUGGCAUAAGCCUCCC [RB470]
[2]; [3]
  binding result: no binding

## GGGAGGACGAUGCGGAUCACACCGCGUCAAGCGUAAGCCUCCU [EF-3 T2 mut3]
[2]; [4]
  binding result: no binding
[1]; [5]
  functional effect of the aptamer: not active

## GGGAGGACGAUGCGGAUCACACCGCGUCAUGCGUAAGCCUCCU [EF-3 T2 mut7]
[2]; [4]
  binding result: no binding

## GGGAGGACGAUGCGGAUCACACCGCGUCUAGCGUAAGCCUCCU [EF-3 T2 mut6]
[2]; 2'-F C and U, 2'-OH A and G, variant of EF-3 T2 (RB430)
  binding result: binds more weakly

## GGGAGGACGAUGCGGAUCACACCGCGUCUUGCGUAAGCCUCCU [EF-3 T2 (RB430)]
[1]; [6]
  functional effect of the aptamer: active

## GGGAGGACGAUGCGGAUCACACCGCGUCUUGCGUGGGCCUCCU [EF-3 T2 mut5]
[2]; [4]
  binding result: no binding
[1]; [5]
  functional effect of the aptamer: not active

## GGGAGGACGAUGCGGAUCACACCGCGUCUUGCGUUUGCCUCCU [EF-3 T2 mut4]
[2]; [4]
  binding result: no binding
[1]; [5]
  functional effect of the aptamer: not active

## GGGAGGACGAUGCGGUGCCAAAACACCCGUCAAGCAUAAGCCUCCU [EF-2 T2 mut3]
[2]; [7]
  binding result: no binding
[1]; [8]
  functional effect of the aptamer: not active

## GGGAGGACGAUGCGGUGCCAAAACACCCGUCUUGCAUAAGCCUCCU [EF-2 T2 (RB428)]
[1]; [6]
  functional effect of the aptamer: active

## GGGAGGACGAUGCGGUGCCAAAACACCCGUCUUGCAUGGGCCUCCU [EF-2 T2 mut5]
[2]; [7]
  binding result: no binding
[1]; [8]
  functional effect of the aptamer: not active

## GGGAGGACGAUGCGGUGCCAAAACACCCGUCUUGCAUUUGCCUCCU [EF-2 T2 mut4]
[2]; [7]
  binding result: no binding
[1]; [8]
  functional effect of the aptamer: not active

## GGGAGGACGGCGCGCCUGGCAUAAGCCUCCC [RB466]
[2]; 2'-F C and U, 2'-OH A and G, hexaethylene glycol spacer between G12 and C13 replacing Loop 2, 3' idT, variant of RB448
  binding result: binds

## GGGAGGACGGCGCGCCUGGCAUAAGCCUCCC [RB478]
[1]; RB466 with 5' 6-FAM, rated +++, compound assayed functionally, variant of RB466
  functional effect of the aptamer: active

## GGGAGGACGGCGCGCCUGGCAUAAGCCUCCC [RB490]
[2]; 2'-OMe G2,G3,A4,G5,C11,G12,C13,G14,G19,C26,C27,U28,C29,C30,C31, 2'-F C8,C15,C16,U17,C20,U22, rest 2'-OH, hexaethylene glycol spacer between G12 and C13, 3' idT, buffer F, 37 C, variant of RB466
  binding result: binds
[1]; 2'-OMe G2,G3,A4,G5,C11,G12,C13,G14,G19,C26,C27,U28,C29,C30,C31, 2'-F C8,C15,C16,U17,C20,U22, rest 2'-OH, hexaethylene glycol spacer between G12 and C13, 3' idT, collagen-induced washed platelet aggregation, CRP-XL IC50 79 nM, variant of RB466
  pIC50: 7.64
[1]; rGmGmGmAmGrGrAfCrGrGmCmG(6GLY)mCmGfCfCfUrGmGfCrAfUrArArGmCmCmUmCmCmCiT, CRP-XL-induced aggregation, washed platelets
  pIC50: 7.10

## GGGAGGACGGCGCGCCUGGCAUAAGCCUCCC [RB498]
[2]; RB490 with 2'-OMe C16, variant of RB490
  binding result: binds more weakly

## GGGAGGACGGCGCGCCUGGCAUAAGCCUCCC [RB501]
[2]; RB490 with 2'-OMe C20, no binding, variant of RB490
  binding result: no binding

## GGGAGGACGGCGCGCCUGGCAUAAGCCUCCC [RB522]
[2]; RB520 with 2'-OMe A7, variant of RB520
  binding result: binds more weakly

## GGGAGGACGGCGCGCCUGGCAUAAGCCUCCC [RB525]
[2]; RB524 with 2'-deoxy A7, 2'-OMe G9, variant of RB524
  binding result: binds more weakly

## GGGAGGACGGCGCGCCUUGCAUAAGCCUCCC [RB480]
[2]; 2'-F C and U, 2'-OH A and G, hexaethylene glycol spacer in place of Loop 2, 3' idT, variant of RB466
  binding result: binds

## GGGAGGACGGCGCUAACGCCAAGCAUAAGCCUCCC [RB469]
[1]; 2'-F C and U, 2'-OH A and G, 5' 6-FAM, 3' idT, dead, compound assayed functionally, variant of RB448
  functional effect of the aptamer: not active

## GGGAGGACGGCGCUAACGCCUGGCAUAAGCCUCCC [RB459]
[2]; RB448 with 2'-OMe U21, no binding, variant of RB448
  binding result: no binding

## GGGAGGACGGCGCUAACGCCUGGCAUAAGCCUCCC [RB461]
[2]; RB448 with 2'-OMe U21,G22, no binding, variant of RB448
  binding result: no binding

## GGGAGGACGGCGCUAACGCCUGGCAUAAGCCUCCC [RB463]
[2]; RB448 with 2'-OMe C24,G29, no binding, variant of RB448
  binding result: no binding

## GGGAGGAGGGCGCGCCUGGCAUAAGCCUCCC [RB472]
[2]; [3]
  binding result: no binding

## GGGAGGUCGGCGCGCCUGGCAUAAGCCUCCC [RB471]
[2]; 2'-F C and U, 2'-OH A and G, hexaethylene glycol spacer in place of Loop 2, 3' idT, no binding, inactive control in whole blood flow assay, variant of …
  binding result: no binding
[1]; rGrGrGrArGrGfUfCrGrGfCrG(6GLY)fCrGfCfCfUrGrGfCrAfUrArArGfCfCfUfCfCfCiT, inactive control, platelet response on collagen under flow comparable to buffer, whole blood
  functional effect of the aptamer: not active
